Measured values: patent publication US5763284A, “Methods for peptide synthesis and purification” (Dade International Inc., priority 1995, dated 1998)
Part of at least one peptide drawing is inferred or uncertain, most often the ends. No end group written: not given here.

Assays:
[1] = tested on: D011 cells; experiment: Loading of A20 APC and activation of D011 T cells, IL-2 release ELISA; assay type: cell-based, murine
Experimental: The efficacy of a fusion polypeptide of the invention to load APCs and activate T cells was tested. A penI:Ova fusion polypeptide (i.e., a fusion polypeptide containing the penI protein linked to an Ova target peptide) was employed as well as other materials. Three independent experiments were performed utilizing A20 APC and the D011 T cell […] cell line. D011 cells are specifically responsive to Ova loaded major histocompability complex class II (MHCII) molecules presented by A20 APCs. A20 cells were loaded with 5 μg purified penI:Ova fusion polypeptide or 5 μg synthetic Ova peptide (positive control synthesized by Mimetics, Chiron Corp.) for 1 hour. 1×10^5 D011 cells were added and incubated with the loaded A20 cells for 24 hours. The degree of activation of D011 cells was determined by the release of Interleukin 2 (IL-2) into the culture medium. After 24 hours of incubation supernatants were collected and analyzed in an ELISA format for IL-2 (using two anti-IL2 antibodies from Pharmacia).
The following Table summarizes the results of the three experiments and includes several negative controls. One of these controls is a PenI:Ova fusion protein containing the hen egg lysozyme (HEL) peptide preceded by the Factor Xa cleavage recognition site IEGRNLCNIPCSALLSS (SEQ ID NO: 55) and therefore should not stimulate D011 cells.

[2] = tested on: D011 cells; experiment: A20/D011 activation assay, equimolar titration of penI:Ova and Ova peptide; assay type: cell-based, murine

## ISQAVHAAHAEINEAGR [Ova peptide]
[1]; DO11 and A20 cells, 24 hours, Experiment 1
  IL-2 release: 8786 pg/mL
[1]; DO11 and A20 cells, 24 hours, Experiment 2
  IL-2 release: 11146 pg/mL
[1]; DO11 and A20 cells, 24 hours, Experiment 3
  IL-2 release: 6778 pg/mL
[1]; DO11 cells without A20 cells, Experiment 1
  IL-2 release: 0 pg/mL
[1]; DO11 cells without A20 cells, Experiment 2
  IL-2 release: 0 pg/mL
[1]; DO11 cells without A20 cells, Experiment 3
  IL-2 release: 0 pg/mL
[1]; summary of three experiments
  stimulation of D011 cells: stimulated D011 cells
[2]; 1.2 × 10^-9 moles per well, Experiment 2
  IL-2 released: 3702 pg/mL
[2]; 1.2 × 10^-9 moles per well, Experiment 3
  IL-2 released: 2997 pg/mL
[2]; 1.5 × 10^-10 moles per well, Experiment 1
  IL-2 released: 1878 pg/mL
[2]; 1.5 × 10^-10 moles per well, Experiment 2
  IL-2 released: 1284 pg/mL
[2]; 1.5 × 10^-10 moles per well, Experiment 3
  IL-2 released: 0 pg/mL
[2]; 2.4 × 10^-9 moles per well, Experiment 2
  IL-2 released: 4624 pg/mL
[2]; 2.4 × 10^-9 moles per well, Experiment 3
  IL-2 released: 3675 pg/mL
[2]; 3.0 × 10^-10 moles per well, Experiment 1
  IL-2 released: 3333 pg/mL
[2]; 3.0 × 10^-10 moles per well, Experiment 2
  IL-2 released: 2714 pg/mL
[2]; 3.0 × 10^-10 moles per well, Experiment 3
  IL-2 released: 742 pg/mL
[2]; 3.7 × 10^-11 moles per well, Experiment 1
  IL-2 released: 0 pg/mL
[2]; 3.7 × 10^-11 moles per well, Experiment 2
  IL-2 released: 0 pg/mL
[2]; 3.7 × 10^-11 moles per well, Experiment 3
  IL-2 released: 0 pg/mL
[2]; 6.0 × 10^-10 moles per well, Experiment 1
  IL-2 released: 4011 pg/mL
[2]; 6.0 × 10^-10 moles per well, Experiment 2
  IL-2 released: 3487 pg/mL
[2]; 6.0 × 10^-10 moles per well, Experiment 3
  IL-2 released: 2023 pg/mL
[2]; 7.4 × 10^-11 moles per well, Experiment 1
  IL-2 released: 589 pg/mL
[2]; 7.4 × 10^-11 moles per well, Experiment 2
  IL-2 released: 216 pg/mL
[2]; 7.4 × 10^-11 moles per well, Experiment 3
  IL-2 released: 0 pg/mL
